Results are given in words; binding and its absence hold for the method and conditions named. Binding seen in cells or lysates may run through a third protein. Here binding means that the protein was enriched with, or labelled near, the bait; the list need not be complete.
Target: GST-tagged ENTH domain of rat epsin 1 (rat) (UniProt O88339)
Assay: affinity purification with mass spectrometry; GST–ENTH domain of epsin 1 as bait, mouse brain lysate; gel band analysed by mass spectroscopy; only the target purified

Sequences of proteins named here, by UniProt entry; tags and fusion partners are left off. A change or cut given only in a name is not applied to a line headed by its entry.
UniProt O88339: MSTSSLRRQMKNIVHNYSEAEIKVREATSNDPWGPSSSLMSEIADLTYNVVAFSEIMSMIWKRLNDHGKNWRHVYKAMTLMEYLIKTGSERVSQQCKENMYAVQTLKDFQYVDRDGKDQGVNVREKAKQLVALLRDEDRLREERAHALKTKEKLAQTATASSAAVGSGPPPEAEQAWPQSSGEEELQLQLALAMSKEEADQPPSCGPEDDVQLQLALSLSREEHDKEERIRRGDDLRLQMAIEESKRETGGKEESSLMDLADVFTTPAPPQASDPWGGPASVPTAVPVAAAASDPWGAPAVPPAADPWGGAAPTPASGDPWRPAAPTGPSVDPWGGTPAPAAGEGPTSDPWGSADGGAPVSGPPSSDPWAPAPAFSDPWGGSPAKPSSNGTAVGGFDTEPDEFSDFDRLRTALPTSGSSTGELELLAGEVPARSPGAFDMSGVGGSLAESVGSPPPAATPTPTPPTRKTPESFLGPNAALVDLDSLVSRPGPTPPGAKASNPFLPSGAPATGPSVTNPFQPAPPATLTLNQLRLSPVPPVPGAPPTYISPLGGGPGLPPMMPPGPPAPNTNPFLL
UniProt P63044: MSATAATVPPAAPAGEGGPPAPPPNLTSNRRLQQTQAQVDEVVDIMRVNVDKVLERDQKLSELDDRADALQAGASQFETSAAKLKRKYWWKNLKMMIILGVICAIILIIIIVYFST

- binding: binds
Substance: synaptobrevin 2/VAMP2 (endogenous, mouse brain) (from UniProt P63044 1-116)

Source: paper PMC4161027
